Laboratory results taken from patent publication US4244947A, “Carba decapeptide derivatives of [TYR^6 ]-somatostatin” (Ayerst McKenna and Harrison Inc., priority 1979, dated 1981).
Not every detail of the peptide structures is certain; ends, links or a residue may be inferred. Where a SMILES comes first, the peptide text is derived from it. [ ]: non-standard residue; d: D form. Ahp = NCCCCCCC(=O)O

Experiments:
Type in all cases: in vivo, rat
[1] = test system: glucose stimulated insulin secretion; experiment: glucose stimulated insulin secretion in anaesthetized fasted rats (plasma IRI); conditions: absolute level, mean ± SEM
Procedure: (§1) The in vivo activity of the peptide of formula I is established by subjecting the peptide of formula I, in which X is (CH2)2 as a representative peptide of this invention, to the following standard test procedures.
(§2) Male Sprague Dawley rats (200±10 gm) body weight are used throughout these studies. They are maintained on an ad libitum diet of Purina Lab Chow and tap water until 24 hr before the studies are carried out. In the 24 hr period prior to use, the animals are fasted, but have unlimited access to tap water. All studies are conducted on sodium pentobarbital, sold under the trademark Nembutal, (Abbott Labs, Montreal), 60 mg/kg, ip, anaesthetized rats.
In studies where only insulin secretion is stimulated, glucose in 0.9% aqueous sodium chloride (British Drug House, Poole, England) is infused into an exposed jugular vein (100 mg/100 gm, in a volume of 2.0 ml for 30 min).
(§3) The peptide of formula I or somatostatin at various concentrations is infused simultaneously with the arginine or glucose stimulus, with the aid of a butterfly infusion set (23 guage) into the test animals. The effect of the vehicle on the release of the hormones is determined by infusing the saline diluent into selected rats.
(§4) The blood samples are discharged into chilled (4° C.) glass test tubes, containing aprotinin, sold under the trademark Trasylol, (Boehringer Ingelheim, Montreal), 500 KIU/ml whole blood, and plasma samples were collected after centrifugation (4° C., 3000 rpm for 30 min). The plasma samples were stored at -20° until assayed for immuno reactive glucagon (IRG) using antiserum 30 K and for immuno reactive insulin (IRI) by the methods described by W. Lippmann and M. Kobric, Horm. Metab. Res., 10, 280 (1978).
(§5) All results are expressed as the mean ±SEM of the response. Insulin and glucagon responses obtained in the arginine treated groups are derived by subtracting the basal hormone level from the level at 30 min, and are expressed in Tables I, II and III as ΔIRG (pg/ml) and ΔIRI/(μU/ml), for glucagon and insulin, respectively. Insulin results obtained from the glucose treated animals are in absolute hormone level at the termination of the infusion.
(§6) Wilcoxon's two sample test for unpaired observations, as described in "Statistical Methods", G. W. Snedecor and W. G. Cochran, ed., sixth edition, the Iowa State University Press, Ames, Iowa, 1973, pp 130 and 131, is used to determine the significance of the peptide+arginine or peptide+glucose versus the responses due to arginine or glucose alone. In selected instances, parallel dose-response line assay by analysis of variance, as described in "Statistical Method in Biological Assay", D. J. Finney, ed., second edition, Hafner Publishing Company, New York, 1964, is used to determine the relative potency of the 2 peptides in the bioassays. A p≤0.05 is deemed to be significant.

[2] = test system: arginine stimulated insulin secretion; experiment: arginine stimulated insulin secretion in anaesthetized fasted rats (plasma IRI); conditions: for ΔIRI, mean incremental change of IRI from basal: infused with arginine, 30 min, mean ± SEM
Procedure: as §1, §2
(§7) In studies where both insulin and glucagon secretion are investigated, arginine (arginine-HCl in 0.9% aqueous sodium chloride, pH 7.4, 200 mg/100 gm rat, Nutritional Biochemicals, Cleveland) is infused into an exposed jugular vein (2.0 ml/30 min).
as §3, §4, §5, §6

[3] = test system: arginine stimulated glucagon secretion; experiment: arginine stimulated glucagon secretion in anaesthetized fasted rats (plasma IRG); conditions: for ΔIRG, mean incremental change of plasma IRG from level at 0 min to level at 30 min: mean ± SEM
Procedure: as §1, §2, §7, §3, §4, §5, §6

[4] = administered in the range of about 200 to 400 μg/kg

Structure (SMILES): C[C@@H](O)[C@@H]1NC(=O)[C@H](Cc2ccccc2)NC(=O)[C@H]([C@@H](C)O)NC(=O)[C@H](CCCCN)NC(=O)[C@@H](Cc2c[nH]c3ccccc23)NC(=O)[C@H](Cc2ccccc2)NC(=O)[C@H](Cc2ccc(O)cc2)NC(=O)[C@H](CC(N)=O)NC(=O)[C@H](CCCCN)NC(=O)CCCCCCNC(=O)[C@H](CO)NC1=O [CYCLIC AMIDE OF LYSYL-ASPARAGINYL-TYROSYL-PHENYLALANYL-D-TRYPTOPHYL-LYSYL-THREONYL-PHENYLALANYL-THREONYL-SERYL-7-AMINOHEPTANOIC ACID] (cyclo([Ahp]KNYF[dW]KTFTS))
- IRI/ml, level observed at 30 min ([1]; Study A, 10 μg peptide/100 gm rat infused for 30 min with glucose): 47.2 ± 9.8 μU/ml
- IRI/ml, level observed at 30 min ([1]; Study A, 100 μg peptide/100 gm rat infused for 30 min with glucose): 13.7 ± 0.8 μU/ml
- IRI/ml, level observed at 30 min ([1]; Study B, 10 μg peptide/100 gm rat infused for 30 min with glucose): 63.8 ± 5.1 μU/ml
- IRI/ml, level observed at 30 min ([1]; Study B, 30 μg peptide/100 gm rat infused for 30 min with glucose): 40.2 ± 6.8 μU/ml
- IRI/ml, level observed at 30 min ([1]; Study B, 100 μg peptide/100 gm rat infused for 30 min with glucose): 32.8 ± 11.4 μU/ml
- ΔIRI, mean incremental change of IRI from basal ([2]; Study A, 0.3 μg peptide/100 gm body weight rat): 74.8 ± 16.1 μU/ml
- ΔIRI, mean incremental change of IRI from basal ([2]; Study A, 1.0 μg peptide/100 gm body weight rat): 78.6 ± 16.9 μU/ml
- ΔIRI, mean incremental change of IRI from basal ([2]; Study A, 3.0 μg peptide/100 gm body weight rat): 78.2 ± 16.0 μU/ml
- ΔIRI, mean incremental change of IRI from basal ([2]; Study A, 30.0 μg peptide/100 gm body weight rat): 40.7 ± 8.3 μU/ml
- ΔIRI, mean incremental change of IRI from basal ([2]; Study B, 0.03 μg peptide/100 gm body weight rat): 62.9 ± 14.4 μU/ml
- ΔIRI, mean incremental change of IRI from basal ([2]; Study B, 0.3 μg peptide/100 gm body weight rat): 68.6 ± 20.7 μU/ml
- ΔIRI, mean incremental change of IRI from basal ([2]; Study B, 3.0 μg peptide/100 gm body weight rat): 114.4 ± 11.2 μU/ml
- ΔIRI, mean incremental change of IRI from basal ([2]; Study B, 30.0 μg peptide/100 gm body weight rat): 97.8 ± 22.8 μU/ml
- ΔIRI, mean incremental change of IRI from basal ([2]; Study C, 10.0 μg peptide/100 gm body weight rat): 93.8 ± 7.1 μU/ml
- ΔIRI, mean incremental change of IRI from basal ([2]; Study C, 100.0 μg peptide/100 gm body weight rat): 38.0 ± 10.6 μU/ml
- effect on insulin concentration [2, 4]: without drastically changing the insulin concentration
- ΔIRG, mean incremental change of plasma IRG from level at 0 min to level at 30 min ([3]; Study A, 0.3 μg peptide/100 gm rat infused for 30 min with arginine): 151.5 ± 27.5 pg/mL
- ΔIRG, mean incremental change of plasma IRG from level at 0 min to level at 30 min ([3]; Study A, 1.0 μg peptide/100 gm rat infused for 30 min with arginine): 100.4 ± 30.4 pg/mL
- ΔIRG, mean incremental change of plasma IRG from level at 0 min to level at 30 min ([3]; Study A, 3.0 μg peptide/100 gm rat infused for 30 min with arginine): 109.3 ± 44.4 pg/mL
- ΔIRG, mean incremental change of plasma IRG from level at 0 min to level at 30 min ([3]; Study A, 30.0 μg peptide/100 gm rat infused for 30 min with arginine): 40.0 ± 25.0 pg/mL
- ΔIRG, mean incremental change of plasma IRG from level at 0 min to level at 30 min ([3]; Study B, 0.03 μg peptide/100 gm rat infused for 30 min with arginine): 157.8 ± 30.6 pg/mL
- ΔIRG, mean incremental change of plasma IRG from level at 0 min to level at 30 min ([3]; Study B, 0.3 μg peptide/100 gm rat infused for 30 min with arginine): 132.2 ± 20.9 pg/mL
- ΔIRG, mean incremental change of plasma IRG from level at 0 min to level at 30 min ([3]; Study B, 3.0 μg peptide/100 gm rat infused for 30 min with arginine): 105.7 ± 22.7 pg/mL
- ΔIRG, mean incremental change of plasma IRG from level at 0 min to level at 30 min ([3]; Study B, 30.0 μg peptide/100 gm rat infused for 30 min with arginine): 49.3 ± 14.4 pg/mL
- effect on glucagon [3, 4]: reduces glucagon markedly
- suppression of IRG secretion, comparison ([3]; arginine stimulated, summary of Table II): suppresses the IRG secretion about equally
